Reference: PubChem BioAssay AID720504 (National Center for Advancing Translational Sciences (NCATS), 2013)
Screen size: about 360,000 compounds; about 10,000 (2.8%) were called active. This list was built around the results that the source calls inconclusive (neither active nor inactive); the mix of calls is not that of the screen. The call rests on the fitted dose curve; in most records, active means well fitted inhibition curve with a large enough effect; inconclusive means small, poorly fitted or top-dose-only effect; inactive means flat fitted curve, though single readings scatter. A potency beside an inconclusive call is a rough fit, not a confirmed value.
Further: nearly all actives have a fitted effect of over 65% in size.
On the % scale 0 is the no-effect control and ±100 the full control effect; potency means the concentration at half of the fitted maximal effect.
Wherever max response, negative = inhibition is given: series mostly up to about 57 µM.

Chains of the proteins cited; added tags and fusions are not shown.
UniProt P53350, whole entry, looked up: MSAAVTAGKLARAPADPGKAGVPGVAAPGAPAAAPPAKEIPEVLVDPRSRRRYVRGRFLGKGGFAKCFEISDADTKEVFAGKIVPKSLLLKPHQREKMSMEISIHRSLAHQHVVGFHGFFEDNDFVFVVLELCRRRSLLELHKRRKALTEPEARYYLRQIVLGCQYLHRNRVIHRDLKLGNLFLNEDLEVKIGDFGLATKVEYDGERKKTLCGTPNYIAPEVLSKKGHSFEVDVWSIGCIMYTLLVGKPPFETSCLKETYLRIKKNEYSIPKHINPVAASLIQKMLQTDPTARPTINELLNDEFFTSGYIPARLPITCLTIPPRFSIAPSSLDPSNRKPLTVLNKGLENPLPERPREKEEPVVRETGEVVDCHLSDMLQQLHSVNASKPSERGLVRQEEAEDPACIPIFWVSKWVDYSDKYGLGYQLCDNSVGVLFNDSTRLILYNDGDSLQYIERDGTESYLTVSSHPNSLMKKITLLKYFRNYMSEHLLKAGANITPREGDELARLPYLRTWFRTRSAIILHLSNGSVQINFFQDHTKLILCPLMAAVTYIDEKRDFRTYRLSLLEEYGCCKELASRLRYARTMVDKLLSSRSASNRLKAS

The compounds below were run against Serine/threonine-protein kinase PLK1 (Homo sapiens) (UniProt P53350) (assay: qHTS for Inhibitors of PLK1-PDB (polo-like kinase 1 - polo-box domain): Primary Screen). Details: Plk1 PBD binding of FITC phosphopeptide, fluorescence polarization.
In the case of `S=c1[nH]nc(-c2ccco2)n1/N=C/c1ccc(Br)s1`, the Potency is reported as inconclusive: 16.8 µM [inhibitor, partial curve].
In the case of `CC(C)CNC(=O)N[C@@H](CC(C)C)C(=O)O`, the Potency is reported as inconclusive: 21.2 µM [inhibitor, partial curve].
With `CSc1ccccc1-c1nnc(-c2ccc(Cl)c(Cl)c2)o1` the max response, negative = inhibition was inconclusive: -31.6% [inhibitor].
With `Cc1cc(Sc2nc(N)ncc2[N+](=O)[O-])ncn1` the Potency was inconclusive: 13.4 µM [inhibitor, partial curve].
`COc1ccc(S(=O)(=O)N2CCN(Cc3cc(OC)c(OC)cc3OC)CC2)cc1` was tested, and the max response, negative = inhibition was inactive: -7.87%.
For `N#CCSc1ccccc1NC(=O)CN1C(=O)NC(CCc2ccccc2)C1=O` (stereo unspecified), the max response, negative = inhibition was inactive: 1.14%.
`O=C(CCCC(=O)NCCc1ccccc1)NCCc1ccccc1` was tested, and the Potency was inconclusive: 29.9 µM [inhibitor, partial curve].
With `C=CCNC(=O)/C(C#N)=C/c1c(N2CCN(c3ccc(OC)cc3)CC2)nc2c(C)cccn2c1=O` the Potency was inconclusive: 26.7 µM [inhibitor, single point].
`c1ccc2nc3ccccc3nc2c1` was tested, and the max response, negative = inhibition was inactive: -13.7%.
In the case of `CN(Cc1ccc(Br)cc1)CC(O)COc1cccc(Br)c1` (stereo unspecified), the max response, negative = inhibition is reported as inactive: 0.18%.
In the case of `COCCCNC(=O)CSc1ccsc1[N+](=O)[O-]`, the Potency is reported as inconclusive: 26.7 µM [inhibitor, partial curve].
With `COCCNc1nc2nonc2nc1N1CCCC1c1nccs1` (stereo unspecified) the Potency was inconclusive: 15 µM [inhibitor, partial curve].
For `CCOC(=O)C1CCCN(C(=O)c2ccccc2SCCOC)C1` (stereo unspecified), the Potency was inconclusive: 26.7 µM [inhibitor, single point].
In the case of `COc1ccc(CNC(=O)c2cc(C)nn2-c2ccccc2)cc1`, the max response, negative = inhibition is reported as inconclusive: -11.4% [inhibitor].
In the case of `CCN(CCCNC(=O)CCCn1c(=O)[nH]c2ccccc2c1=O)c1cccc(C)c1`, the max response, negative = inhibition is reported as inconclusive: -30.2% [inhibitor].
For `CC(C)c1ccccc1NC(=O)COC(=O)Cc1cccc(C(F)(F)F)c1`, the Potency was active: 26.7 µM.
In the case of `O=C(c1nnsc1S(=O)(=O)c1ccc(Cl)cc1)N1CCOCC1`, the Potency is reported as inconclusive: 26.7 µM [inhibitor, partial curve].
In the case of `O=c1c(-c2ccc(Br)cc2)[n+]([O-])c2ccccc2n1OCc1ccccn1`, the Potency is reported as active: 23.8 µM.
`COc1cc(NC(=O)C2=C(C)OCCS2)c(Cl)cc1C(=O)NCCN(C)C` was tested, and the max response, negative = inhibition was inactive: -15.8%.
With `CCOC(=O)Cc1cc(=O)[nH]c(Nc2nc3ccccc3o2)n1` the max response, negative = inhibition was inactive: 1.08%.
In the case of `O=CNc1cc(-c2ccsc2)cn2c(-c3ccccc3)cnc12`, the Potency is reported as inconclusive: 23.8 µM [inhibitor, partial curve].
`CCn1cc(CCC(=O)NCc2ccc(F)cc2)c2ccccc21` was tested, and the Potency was active: 23.8 µM.
`CC(C)Oc1cccc(C(=O)N/N=C/c2coc3ccccc3c2=O)c1` was tested, and the Potency was inconclusive: 29.9 µM [inhibitor, partial curve].
In the case of `O=C1N=c2ccccc2=C1c1c(O)n(-c2cccc(F)c2)[nH]c1=O`, the Potency is reported as active: 5.32 µM.
In the case of `CC1(C)CC(=O)C(C=NCCN2CCN(C3CC(=O)N(c4ccc(Br)cc4)C3=O)CC2)=C(O)C1` (stereo unspecified), the Potency is reported as active: 26.7 µM.
For `CCc1ccccc1NC(=O)CSC1=C(C#N)C(c2ccc3c(c2)OCO3)C2=C(CCCC2=O)N1` (stereo unspecified), the Potency was inconclusive: 47.4 µM [inhibitor, partial curve].
`CCN(CC)C(=O)c1sc2nc(N3CCOCC3)c3c(c2c1N)CCCC3` was tested, and the Potency was inconclusive: 23.8 µM [inhibitor, partial curve].
For `O=C(CC(Nc1cccc(Cl)c1Cl)C(=O)OCC(=O)c1cccs1)c1ccccc1` (stereo unspecified), the max response, negative = inhibition was inactive: -2.62%.
`CC1=NN(c2ccccc2)C(=O)/C1=C\N(O)c1ccccc1` was tested, and the Potency was inconclusive: 29.9 µM [inhibitor, partial curve].
With `CC/C(=N\NC(=O)c1ccc(N(C)C)cc1)c1ccccc1` the Potency was inconclusive: 21.2 µM [inhibitor, single point].
With `O=C(O)CCc1ccc(-c2ccc(Br)cc2)o1` the Potency was inconclusive: 16.8 µM [inhibitor, partial curve].
With `COc1cc(NS(=O)(=O)c2ccc(N/C=C(\C#N)c3nc4ccccc4o3)cc2)nc(OC)n1` the Potency was inconclusive: 37.7 µM [inhibitor, single point].
For `COc1cccc(/C(O)=C2/C(=O)C(=O)N(CCN(C)C)C2c2ccc(Br)cc2)c1` (stereo unspecified), the Potency was inconclusive: 21.2 µM [inhibitor, partial curve].
With `CN(/N=C/c1ccc2c(c1)OCO2)c1ccccc1` the max response, negative = inhibition was inactive: 10.7%.
For `CCOC(=O)c1c(C)[nH]c(C2=NNC(=NC(C)COC)SC2)c1C` (stereo unspecified), the Potency was inconclusive: 37.7 µM [inhibitor, partial curve].
`COC(=O)c1ccc2nc(NC(=O)CN3C(=O)CCC3=O)sc2c1` was tested, and the Potency was active: 11.9 µM.
With `Cc1nn(CC(=O)NCCCN2C(C)CCCC2C)c(=O)c2cc3occc3n12` (stereo unspecified) the Potency was inconclusive: 23.8 µM [inhibitor, single point].
With `CN(C(=S)NC(=O)C1CCCC1)c1ccccc1` the Potency was active: 29.9 µM.
With `CCCCNC(=O)C1c2ccccc2OCC(=O)N1CCc1ccccc1` (stereo unspecified) the max response, negative = inhibition was inactive: 0.0383%.
In the case of `CSc1nnc(N2C(=O)C(O)=C(C(=O)c3ccco3)C2c2ccccc2F)s1` (stereo unspecified), the max response, negative = inhibition is reported as inactive: -13.3%.
In the case of `CCCN1CCN(C(=O)c2ccc(-c3ccc([N+](=O)[O-])cc3)o2)CC1`, the Potency is reported as inconclusive: 21.2 µM [inhibitor, partial curve].
`CCCCCCC(=O)N(O)C1CC(=O)N(c2ccc(Cl)cc2)C1=O` (stereo unspecified) was tested, and the Potency was inconclusive: 29.9 µM [inhibitor, single point].
For `COc1cc(-c2cc(C(=O)Nc3c(Cl)cc(Cl)cc3Cl)c3ccccc3n2)cc(OC)c1OC`, the max response, negative = inhibition was inactive: 1.34%.
In the case of `COC(=O)c1ccc(NC(=O)CS(=O)(=O)Cc2ccccc2)cc1`, the Potency is reported as active: 26.7 µM.
`O=C(O)c1[nH]c2ccccc2c1C(c1cc(Br)ccc1O)c1c(C(=O)O)[nH]c2ccccc12` was tested, and the Potency was active: 16.8 µM.
With `Cc1ccc(C)c(S(=O)(=O)NCCC(=O)N2CCCC(C(N)=O)C2)c1` (stereo unspecified) the max response, negative = inhibition was inactive: -7.1%.
`O=C(/C=C/c1ccccc1Cl)c1cccnc1` was tested, and the Potency was inconclusive: 26.7 µM [inhibitor, partial curve].
In the case of `CSCCC(NC(C)=O)C(=O)Oc1ccc2c3c(c(=O)oc2c1)CCCC3` (stereo unspecified), the Potency is reported as inconclusive: 18.9 µM [inhibitor, partial curve].
`CCOC(=O)Cn1cnc2sc(C(=O)OC)c(C)c2c1=O` was tested, and the Potency was inconclusive: 5.97 µM [inhibitor, single point].
In the case of `COC(=O)C1CN(S(=O)(=O)c2cc(OC)ccc2OC)CCS1` (stereo unspecified), the max response, negative = inhibition is reported as inactive: -21.2%.
`CN(C)c1ccc(C=C2C(=O)OC(C)(C)OC2=O)cc1` was tested, and the Potency was inconclusive: 3.36 µM [inhibitor, full curve].
With `Cc1ccc(CNC(=O)[C@H]2C[C@@H]2[C@H](NP(=O)(c2ccccc2)c2ccccc2)c2ccccc2)o1` the max response, negative = inhibition was inactive: -3.89%.
For `CCOc1ccc(/C(O)=C2/C(=O)C(=O)N(CCCN3CCOCC3)C2c2ccc(C)cc2)cc1C` (stereo unspecified), the max response, negative = inhibition was inactive: -4.96%.
In the case of `O=C1NC[C@@H](c2ccccc2)OC(=O)[C@@H](Cc2ccc(F)cc2)CC/C=C/C[C@H]1CC(=O)N(CCO)Cc1ccccc1`, the Potency is reported as inconclusive: 21.2 µM [inhibitor, single point].
For `NC(=O)CC(NC(=O)Cc1cccc2ccccc12)c1ccc(NC2CCCC2)c([N+](=O)[O-])c1` (stereo unspecified), the Potency was inconclusive: 26.7 µM [inhibitor, single point].
With `Cc1ccc(N=Nc2ccc(O)c(P(=O)(c3ccccc3)c3ccccc3)c2)cc1` the Potency was inconclusive: 29.9 µM [inhibitor, partial curve].
For `CCc1nnc(NS(=O)(=O)c2ccc(NC(=S)NC(=O)/C=C/c3ccccc3)cc2)s1`, the Potency was inconclusive: 37.7 µM [inhibitor, single point].
For `COc1cc(/C=C\C(=O)OCn2nnc3ccccc3c2=O)cc(OC)c1OC`, the max response, negative = inhibition was inactive: 0.384%.
With `C/C(=N\NC(=O)C(C)Oc1ccc([N+](=O)[O-])cc1)c1ccccn1` (stereo unspecified) the max response, negative = inhibition was inactive: -7.09%.
In the case of `COc1ccc(OCCN2CCC(C(=O)NC(c3ccc(F)cc3)c3ncccc3C)CC2)cc1` (stereo unspecified), the max response, negative = inhibition is reported as inactive: -2.3%.
For `CC(C(=O)N1CCOCCOCCOCCOCCOCC1)N1C(=O)c2ccccc2C1=O` (stereo unspecified), the max response, negative = inhibition was inactive: -14.3%.
In the case of `COc1ccc(OCCCC(=O)Nc2nc(-c3ccccn3)cs2)cc1`, the Potency is reported as active: 26.7 µM.
For `Cn1cc(CCNC(=O)CC2C(=O)NCCN2Cc2cccc(Oc3ccccc3)c2)cn1` (stereo unspecified), the Potency was inconclusive: 4.74 µM [inhibitor, full curve].
In the case of `CC1(C)CC(=O)C(Sc2ccc(Br)cc2)=C(O)C1`, the Potency is reported as inconclusive: 29.9 µM [inhibitor, single point].
For `O=C1c2ccccc2-c2nc3ccccc3cc21`, the max response, negative = inhibition was inactive: -7.58%.
In the case of `Cc1ccccc1SCC(=O)NCCCn1ccnc1`, the Potency is reported as inconclusive: 23.8 µM [inhibitor, single point].
With `COc1ccc(C(=O)Nc2ccccc2-c2nnn(CC(=O)N3CCOCC3)n2)cc1` the Potency was inconclusive: 42.3 µM [inhibitor, partial curve].
In the case of `COc1cc(/C=C2\C(=N)N3N=C(S(C)(=O)=O)SC3=NC2=O)ccc1OCCOc1ccc(C)cc1`, the Potency is reported as inconclusive: 26.7 µM [inhibitor, single point].
With `Cc1ccc(S(=O)(=O)N(CC2CO2)c2cccc([N+](=O)[O-])c2)cc1` (stereo unspecified) the max response, negative = inhibition was inactive: -16.4%.
For `CCC(=O)Nc1ccc(NC(=O)/C=C/c2ccc(Cl)cc2)cc1`, the Potency was active: 29.9 µM.
For `Cc1cccn2c(/C=N/OCc3cccc(F)c3)c(-c3ccc(Cl)cc3)nc12`, the max response, negative = inhibition was inactive: -4.77%.
